Source: paper PMC5432348

Protein sequences, listed by entry. Tags and fused reporters are not part of them.
UniProt P21926: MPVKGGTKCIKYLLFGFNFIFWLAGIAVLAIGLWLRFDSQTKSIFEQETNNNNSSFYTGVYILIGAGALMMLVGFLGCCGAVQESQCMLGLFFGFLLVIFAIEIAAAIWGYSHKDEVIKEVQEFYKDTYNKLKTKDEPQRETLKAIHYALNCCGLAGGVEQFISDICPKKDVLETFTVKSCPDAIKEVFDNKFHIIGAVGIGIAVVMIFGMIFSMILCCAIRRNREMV

T1: tetraspanin Co-029/tspan8 (UniProt P19075)
T1 sequence: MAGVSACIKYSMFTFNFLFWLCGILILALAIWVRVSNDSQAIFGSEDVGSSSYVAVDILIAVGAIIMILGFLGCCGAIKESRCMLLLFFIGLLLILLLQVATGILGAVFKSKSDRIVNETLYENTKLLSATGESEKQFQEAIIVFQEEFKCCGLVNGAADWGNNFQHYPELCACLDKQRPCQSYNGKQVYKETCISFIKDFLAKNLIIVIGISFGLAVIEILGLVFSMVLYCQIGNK


Assays:
[1] = biological target: CD9 (human (endogenous in Isreco1)) (UniProt P21926); experiment: affinity purification with mass spectrometry; 1% Brij97 lysates of Isreco1 and Is1-Co029 cells cultured on collagen I (also on tissue culture plastic); beads coupled to mAb Ts9 (CD9) or TS29.2 (Co-029); SDS-PAGE, in-gel trypsin digestion, LC-MS/MS
[2] = biological target: T1, tetraspanin Co-029/tspan8; experiment: as above

binding [1]	binding [2]	Binder
binds	binds	ITFG3 (protein, UniProt Q9H0X4 1-552) MLDHKDLEAEIHPLKNEERKSQENLGNPSKNEDNVKSAPPQSRLSRCRAAAFFLSLFLCLFVVFVVSFVIPCPDRPASQRMWRIDYSAAVIYDFLAVDDINGDRIQDVLFLYKNTNSSNNFSRSCVDEGFSSPCTFAAAVSGANGSTLWERPVAQDVALVECAVPQPRGSEAPSACILVGRPSSFIAVNLFTGETLWNHSSSFSGNASILSPLLQVPDVDGDGAPDLLVLTQEREEVSGHLYSGSTGHQIGLRGSLGVDGESGFLLHVTRTGAHYILFPCASSLCGCSVKGLYEKVTGSGGPFKSDPHWESMLNATTRRMLSHSSGAVRYLMHVPGNAGADVLLVGSEAFVLLDGQELTPRWTPKAAHVLRKPIFGRYKPDTLAVAVENGTGTDRQILFLDLGTGAVLCSLALPSLPGGPLSASLPTADHRSAFFFWGLHELGSTSETETGEARHSLYMFHPTLPRVLLELANVSTHIVAFDAVLFEPSRHAAYILLTGPADSEAPGLVSVIKHKVRDLVPSSRVVRLGEGGPDSDQAIRDRFSRLRYQSEA
binds	binds	STX3 (protein, UniProt Q13277 1-289) MKDRLEQLKAKQLTQDDDTDAVEIAIDNTAFMDEFFSEIEETRLNIDKISEHVEEAKKLYSIILSAPIPEPKTKDDLEQLTTEIKKRANNVRNKLKSMEKHIEEDEVRSSADLRIRKSQHSVLSRKFVEVMTKYNEAQVDFRERSKGRIQRQLEITGKKTTDEELEEMLESGNPAIFTSGIIDSQISKQALSEIEGRHKDIVRLESSIKELHDMFMDIAMLVENQGEMLDNIELNVMHTVDHVEKARDETKKAVKYQSQARKKLIIIIVLVVVLLGILALIIGLSVGLN
binds	binds	STX7 (protein, UniProt O15400 1-261) MSYTPGVGGDPAQLAQRISSNIQKITQCSVEIQRTLNQLGTPQDSPELRQQLQQKQQYTNQLAKETDKYIKEFGSLPTTPSEQRQRKIQKDRLVAEFTTSLTNFQKVQRQAAEREKEFVARVRASSRVSGSFPEDSSKERNLVSWESQTQPQVQVQDEEITEDDLRLIHERESSIRQLEADIMDINEIFKDLGMMIHEQGDVIDSIEANVENAEVHVQQANQQLSRAADYQRKSRKTLCIIILILVIGVAIISLIIWGLNH
binds	binds	TSPAN14 (protein, UniProt Q8NG11 1-270) MHYYRYSNAKVSCWYKYLLFSYNIIFWLAGVVFLGVGLWAWSEKGVLSDLTKVTRMHGIDPVVLVLMVGVVMFTLGFAGCVGALRENICLLNFFCGTIVLIFFLELAVAVLAFLFQDWVRDRFREFFESNIKSYRDDIDLQNLIDSLQKANQCCGAYGPEDWDLNVYFNCSGASYSREKCGVPFSCCVPDPAQKVVNTQCGYDVRIQLKSKWDESIFTKGCIQALESWLPRNIYIVAGVFIAISLLQIFGIFLARTLISDIEAVKAGHHF

The next lines start with the binder.

Binder	binding [1]	binding [2]
NT5E (protein, UniProt P21589 27-549) WELTILHTNDVHSRLEQTSEDSSKCVNASRCMGGVARLFTKVQQIRRAEPNVLLLDAGDQYQGTIWFTVYKGAEVAHFMNALRYDAMALGNHEFDNGVEGLIEPLLKEAKFPILSANIKAKGPLASQISGLYLPYKVLPVGDEVVGIVGYTSKETPFLSNPGTNLVFEDEITALQPEVDKLKTLNVNKIIALGHSGFEMDKLIAQKVRGVDVVVGGHSNTFLYTGNPPSKEVPAGKYPFIVTSDDGRKVPVVQAYAFGKYLGYLKIEFDERGNVISSHGNPILLNSSIPEDPSIKADINKWRIKLDNYSTQELGKTIVYLDGSSQSCRFRECNMGNLICDAMINNNLRHTDEMFWNHVSMCILNGGGIRSPIDERNNGTITWENLAAVLPFGGTFDLVQLKGSTLKKAFEHSVHRYGQSTGEFLQVGGIHVVYDLSRKPGDRVVKLDVLCTKCRVPSYDPLKMDEVYKVILPNFLANGGDGFQMIKDELLRHDSGDQDINVVSTYISKMKVIYPAVEGRIKFS	binds	binds
CYSTM1 (protein, UniProt Q9H1C7 1-97) MNQENPPPYPGPGPTAPYPPYPPQPMGPGPMGGPYPPPQGYPYQGYPQYGWQGGPQEPPKTTVYVVEDQRRDELGPSTCLTACWTALCCCCLWDMLT	binds	binds
CD82 (protein, UniProt P27701 1-267) MGSACIKVTKYFLFLFNLIFFILGAVILGFGVWILADKSSFISVLQTSSSSLRMGAYVFIGVGAVTMLMGFLGCIGAVNEVRCLLGLYFAFLLLILIAQVTAGALFYFNMGKLKQEMGGIVTELIRDYNSSREDSLQDAWDYVQAQVKCCGWVSFYNWTDNAELMNRPEVTYPCSCEVKGEEDNSLSVRKGFCEAPGNRTQSGNHPEDWPVYQEGCMEKVQAWLQENLGIILGVGVGVAIIELLGMVLSICLCRHVHSEDYSKVPKY	binds	binds
EVA1A (protein, UniProt Q9H8M9 1-152) MRLPLSHSPEHVEMALLSNILAAYSFVSENPERAALYFVSGVCIGLVLTLAALVIRISCHTDCRRRPGKKFLQDRESSSDSSDSEDGSEDTVSDLSVRRHRRFERTLNKNVFTSAEELERAQRLEERERIIREIWMNGQPEVPGTRSLNRYY	binds	binds
TSPAN5 (protein, UniProt P62079 1-268) MSGKHYKGPEVSCCIKYFIFGFNVIFWFLGITFLGIGLWAWNEKGVLSNISSITDLGGFDPVWLFLVVGGVMFILGFAGCIGALRENTFLLKFFSVFLGIIFFLELTAGVLAFVFKDWIKDQLYFFINNNIRAYRDDIDLQNLIDFTQEYWQCCGAFGADDWNLNIYFNCTDSNASRERCGVPFSCCTKDPAEDVINTQCGYDARQKPEVDQQIVIYTKGCVPQFEKWLQDNLTIVAGIFIGIALLQIFGICLAQNLVSDIEAVRASW	binds	binds
BCAM (protein, UniProt P50895 32-628) EVRLSVPPLVEVMRGKSVILDCTPTGTHDHYMLEWFLTDRSGARPRLASAEMQGSELQVTMHDTRGRSPPYQLDSQGRLVLAEAQVGDERDYVCVVRAGAAGTAEATARLNVFAKPEATEVSPNKGTLSVMEDSAQEIATCNSRNGNPAPKITWYRNGQRLEVPVEMNPEGYMTSRTVREASGLLSLTSTLYLRLRKDDRDASFHCAAHYSLPEGRHGRLDSPTFHLTLHYPTEHVQFWVGSPSTPAGWVREGDTVQLLCRGDGSPSPEYTLFRLQDEQEEVLNVNLEGNLTLEGVTRGQSGTYGCRVEDYDAADDVQLSKTLELRVAYLDPLELSEGKVLSLPLNSSAVVNCSVHGLPTPALRWTKDSTPLGDGPMLSLSSITFDSNGTYVCEASLPTVPVLSRTQNFTLLVQGSPELKTAEIEPKADGSWREGDEVTLICSARGHPDPKLSWSQLGGSPAEPIPGRQGWVSSSLTLKVTSALSRDGISCEASNPHGNKRHVFHFGTVSPQTSQAGVAVMAVAVSVGLLLLVVAVFYCVRRKGGPCCRQRREKGAPPPGEPGLSHSGSEQPEQTGLLMGGASGGARGGSGGFGDEC	binds	binds
GPC1 (protein, UniProt P35052 24-530) DPASKSRSCGEVRQIYGAKGFSLSDVPQAEISGEHLRICPQGYTCCTSEMEENLANRSHAELETALRDSSRVLQAMLATQLRSFDDHFQHLLNDSERTLQATFPGAFGELYTQNARAFRDLYSELRLYYRGANLHLEETLAEFWARLLERLFKQLHPQLLLPDDYLDCLGKQAEALRPFGEAPRELRLRATRAFVAARSFVQGLGVASDVVRKVAQVPLGPECSRAVMKLVYCAHCLGVPGARPCPDYCRNVLKGCLANQADLDAEWRNLLDSMVLITDKFWGTSGVESVIGSVHTWLAEAINALQDNRDTLTAKVIQGCGNPKVNPQGPGPEEKRRRGKLAPRERPPSGTLEKLVSEAKAQLRDVQDFWISLPGTLCSEKMALSTASDDRCWNGMARGRYLPEVMGDGLANQINNPEVEVDITKPDMTIRQQIMQLKIMTNRLRSAYNGNDVDFQDASDDGSGSGSGDGCLDDLCSRKVSRKSSSSRTPLTHALPGLSEQEGQKTS	binds	binds
SLC44A2 (protein, UniProt Q8IWA5 1-706) MGDERPHYYGKHGTPQKYDPTFKGPIYNRGCTDIICCVFLLLAIVGYVAVGIIAWTHGDPRKVIYPTDSRGEFCGQKGTKNENKPYLFYFNIVKCASPLVLLEFQCPTPQICVEKCPDRYLTYLNARSSRDFEYYKQFCVPGFKNNKGVAEVLQDGDCPAVLIPSKPLARRCFPAIHAYKGVLMVGNETTYEDGHGSRKNITDLVEGAKKANGVLEARQLAMRIFEDYTVSWYWIIIGLVIAMAMSLLFIILLRFLAGIMVWVMIIMVILVLGYGIFHCYMEYSRLRGEAGSDVSLVDLGFQTDFRVYLHLRQTWLAFMIILSILEVIIILLLIFLRKRILIAIALIKEASRAVGYVMCSLLYPLVTFFLLCLCIAYWASTAVFLSTSNEAVYKIFDDSPCPFTAKTCNPETFPSSNESRQCPNARCQFAFYGGESGYHRALLGLQIFNAFMFFWLANFVLALGQVTLAGAFASYYWALRKPDDLPAFPLFSAFGRALRYHTGSLAFGALILAIVQIIRVILEYLDQRLKAAENKFAKCLMTCLKCCFWCLEKFIKFLNRNAYIMIAIYGTNFCTSARNAFFLLMRNIIRVAVLDKVTDFLFLLGKLLIVGSVGILAFFFFTHRIRIVQDTAPPLNYYWVPILTVIVGSYLIAHGFFSVYGMCVDTLFLCFLEDLERNDGSAERPYFMSSTLKKLLNKTNKKAAES	binds	binds

No constants are given. Whether binding was seen depends on the method and setting. In cells and extracts the contact can be indirect. These calls come from enrichment with a bait or labelling near it, and not all partners need be listed.
